# Experimental data reported in the supplement of paper PMC8728848.
# The other results are listed elsewhere or left out.
# Assays:
# Assay in all cases: glycan array binding signal (z-score within array); higher = stronger binding
# Conditions in all cases: glycan notation: IUPAC condensed, linker removed
# [1] = target: GlcNAc(b1-3)Gal(b1-4)GlcNAc(b1-3)Gal(b1-4)GlcNAc(b1-3)Gal(b1-4)GlcNAc(b1-3)Gal(b1-4)GlcNAc(b1-2)Man(a1-3)[GlcNAc(b1-3)Gal(b1-4)GlcNAc(b1-3)Gal(b1-4)GlcNAc(b1-3)Gal(b1-4)GlcNAc(b1-3)Gal(b1-4)GlcNAc(b1-2)Man(a1-6)]Man(b1-4)GlcNAc(b1-4)GlcNAc
# Method in brief: (§1)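 From the Consortium for Functional Glycomics database, 3228 arrays were curated, keeping only those whose protein sequence was available. Binding is given as a within-array Z-score averaged across arrays sharing a protein sequence and across linkers. Negative Z-scores can be read as non-binding.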
# [2] = target: GlcNAc(b1-3)Gal(b1-4)GlcNAc(b1-3)Gal(b1-4)GlcNAc(b1-3)Gal(b1-4)GlcNAc(b1-3)Gal(b1-4)GlcNAc(b1-2)Man(a1-3)[GlcNAc(b1-3)Gal(b1-4)GlcNAc(b1-3)Gal(b1-4)GlcNAc(b1-3)Gal(b1-4)GlcNAc(b1-3)Gal(b1-4)GlcNAc(b1-2)Man(a1-6)]Man(b1-4)GlcNAc(b1-4)[Fuc(a1-6)]GlcNAc
# Method in brief: as §1
# [3] = target: GlcNAc(b1-3)Gal(b1-4)GlcNAc(b1-3)Gal(b1-4)GlcNAc(b1-3)Gal(b1-4)GlcNAc(b1-3)Gal(b1-4)GlcNAc(b1-2)[GlcNAc(b1-3)Gal(b1-4)GlcNAc(b1-3)Gal(b1-4)GlcNAc(b1-3)Gal(b1-4)GlcNAc(b1-3)Gal(b1-4)GlcNAc(b1-6)]Man(a1-6)[GlcNAc(b1-3)Gal(b1-4)GlcNAc(b1-3)Gal(b1-4)GlcNAc(b1-3)Gal(b1-4)GlcNAc(b1-3)Gal(b1-4)GlcNAc(b1-2)Man(a1-3)]Man(b1-4)GlcNAc(b1-4)[Fuc(a1-6)]GlcNAc
# Method in brief: as §1
# [4] = target: GlcNAc(b1-3)Gal(b1-4)GlcNAc(b1-3)Gal(b1-4)GlcNAc(b1-3)GalNAc
# Method in brief: as §1
# [5] = target: GlcNAc(b1-3)Gal(b1-4)GlcNAc(b1-3)GalNAc
# Method in brief: as §1
# [6] = target: GlcNAc(b1-3)Gal(b1-4)GlcNAc(b1-3)[GlcNAc(b1-3)Gal(b1-4)GlcNAc(b1-3)]GalNAc
# Method in brief: as §1
# [7] = target: GlcNAc(b1-3)Gal(b1-4)GlcNAc(b1-6)[Gal(b1-3)]GalNAc
# Method in brief: as §1
# [8] = target: GlcNAc(b1-3)Gal(b1-4)GlcNAc(b1-6)[GlcNAc(b1-3)Gal(b1-3)]GalNAc
# Method in brief: as §1
# [9] = target: GlcNAc(b1-3)Gal(b1-4)GlcNAc(b1-6)[GlcNAc(b1-3)]Gal(b1-4)GlcNAc
# Method in brief: as §1
# [10] = target: GlcNAc(b1-3)GalNAc
# Method in brief: as §1
# [11] = target: GlcNAc(b1-3)[GlcNAc(b1-4)][GlcNAc(b1-6)]GlcNAc
# Method in brief: as §1
# [12] = target: GlcNAc(b1-3)[GlcNAc(b1-6)]Gal(b1-4)GlcNAc
# Method in brief: as §1
# [13] = target: GlcNAc(b1-3)[GlcNAc(b1-6)]GalNAc
# Method in brief: as §1
# [14] = target: GlcNAc(b1-4)Gal(b1-4)GlcNAc
# Method in brief: as §1
# [15] = target: GlcNAc(b1-4)GlcNAc(b1-4)GlcNAc
# Method in brief: as §1
# [16] = target: GlcNAc(b1-4)GlcNAc(b1-4)GlcNAc(b1-4)GlcNAc(b1-4)GlcNAc
# Method in brief: as §1
# [17] = target: GlcNAc(b1-4)GlcNAc(b1-4)GlcNAc(b1-4)GlcNAc(b1-4)GlcNAc(b1-4)GlcNAc
# Method in brief: as §1
# [18] = target: GlcNAc(b1-4)[GlcNAc(b1-6)]GalNAc
# Method in brief: as §1
# [19] = target: GlcNAc(b1-6)Gal(b1-4)GlcNAc
# Method in brief: as §1
# [20] = target: GlcNAc(b1-6)GalNAc
# Method in brief: as §1
# [21] = target: GlcNAc6S(b1-3)Gal(b1-4)GlcNAc
# Method in brief: as §1
# [22] = target: Kdn(a2-3)Gal(b1-3)GalNAc
# Method in brief: as §1
# [23] = target: Kdn(a2-3)Gal(b1-3)GlcNAc
# Method in brief: as §1
# [24] = target: Kdn(a2-3)Gal(b1-4)Glc
# Method in brief: as §1
# [25] = target: Kdn(a2-3)Gal(b1-4)GlcNAc
# Method in brief: as §1
# [26] = target: Kdn(a2-6)Gal(b1-4)GlcNAc
# Method in brief: as §1
# [27] = target: Man(a1-2)Man(a1-2)Man(a1-3)Man
# Method in brief: as §1
# [28] = target: Man(a1-2)Man(a1-2)Man(a1-6)[Man(a1-3)]Man
# Method in brief: as §1
# [29] = target: Man(a1-2)Man(a1-3)Man
# Method in brief: as §1
# [30] = target: Man(a1-2)Man(a1-3)[Man(a1-2)Man(a1-6)]Man
# Method in brief: as §1
# [31] = target: Man(a1-2)Man(a1-3)[Man(a1-2)Man(a1-6)]Man(a1-6)[Man(a1-2)Man(a1-2)Man(a1-3)]Man
# Method in brief: as §1
# [32] = target: Man(a1-2)Man(a1-3)[Man(a1-2)Man(a1-6)]Man(a1-6)[Man(a1-2)Man(a1-2)Man(a1-3)]Man(b1-4)GlcNAc(b1-4)GlcNAc
# Method in brief: as §1
# [33] = target: Man(a1-2)Man(a1-3)[Man(a1-6)]Man(a1-6)[Man(a1-2)Man(a1-3)]Man(b1-4)GlcNAc(b1-4)GlcNAc
# Method in brief: as §1
# [34] = target: Man(a1-2)Man(a1-6)[Man(a1-3)]Man(a1-6)[Man(a1-2)Man(a1-2)Man(a1-3)]Man
# Method in brief: as §1
# [35] = target: Man(a1-2)Man(a1-6)[Man(a1-3)]Man(a1-6)[Man(a1-2)Man(a1-2)Man(a1-3)]Man(b1-4)GlcNAc(b1-4)GlcNAc
# Method in brief: as §1
# [36] = target: Man(a1-3)[Man(a1-6)]Man
# Method in brief: as §1
# [37] = target: Man(a1-3)[Man(a1-6)]Man(a1-6)[Man(a1-2)Man(a1-3)]Man(b1-4)GlcNAc(b1-4)GlcNAc
# Method in brief: as §1
# [38] = target: Man(a1-3)[Man(a1-6)]Man(a1-6)[Man(a1-3)]Man
# Method in brief: as §1
binder,measurement,setting,value
PX14351B-bth-512-36-512 (Bacteroides thetaiotaomicron) (protein) ASETQQWKTLEDTRSALMGVYGLTRAALADNNTHWICGDLRKGDFTVYKRSDLQAVSDNELNKPYDLLKKVSNWRRFYAVINAASVFMEKAPRTVELDRSYSEQNLKYDIAQVRALRAFAYFYMVRIWGDVPLVTYSYDNGTFPSMPRTDAQTVLSYAKAELLTAIEDLPYQYGTQTNLYYGSYGAQWQGKLFNKLSAYSVLAHICAWQGNYAEAETYSAFIIDHASEINAKYTSIADLTSETGLFYSNASVKGSRILGFNFAHNDNEATQSGHLEQLTLAYPLVQKSYPEIYISKDSLFSIFTNFDDLRFGIIDTIKYSSYYVQNLNEETPVFSKIKIIQDGSAKDNDFGVFGSSIVFTRLEDITLLRAEALCALNRSTEAVSYLNMIRTNRGLREVSFKKDFGNNRESLIAEIFEERRRELMGEGWRWYDLVRRQKLMKDNEAFLRLISSGGIYWPVSEDIITANSQIEQNEFWK,glycan array binding signal (z-score),[1],0.559
same,glycan array binding signal (z-score),[2],-0.07
same,glycan array binding signal (z-score),[3],-0.136
same,glycan array binding signal (z-score),[4],-0.364
same,glycan array binding signal (z-score),[5],-0.285
same,glycan array binding signal (z-score),[6],-0.416
same,glycan array binding signal (z-score),[7],-0.321
same,glycan array binding signal (z-score),[8],-0.304
same,glycan array binding signal (z-score),[9],-0.283
same,glycan array binding signal (z-score),[10],-0.069
same,glycan array binding signal (z-score),[11],0.283
same,glycan array binding signal (z-score),[12],-0.14
same,glycan array binding signal (z-score),[13],0.052
same,glycan array binding signal (z-score),[14],-0.133
same,glycan array binding signal (z-score),[15],-0.369
same,glycan array binding signal (z-score),[16],-0.219
same,glycan array binding signal (z-score),[17],-0.219
same,glycan array binding signal (z-score),[18],-0.124
same,glycan array binding signal (z-score),[19],-0.262
same,glycan array binding signal (z-score),[20],-0.247
same,glycan array binding signal (z-score),[21],-0.329
same,glycan array binding signal (z-score),[22],0.222
same,glycan array binding signal (z-score),[23],-0.272
same,glycan array binding signal (z-score),[24],-0.156
same,glycan array binding signal (z-score),[25],-0.028
same,glycan array binding signal (z-score),[26],-0.171
same,glycan array binding signal (z-score),[27],-0.152
same,glycan array binding signal (z-score),[28],-0.353
same,glycan array binding signal (z-score),[29],-0.28
same,glycan array binding signal (z-score),[30],-0.34
same,glycan array binding signal (z-score),[31],-0.251
same,glycan array binding signal (z-score),[32],-0.183
same,glycan array binding signal (z-score),[33],-0.379
same,glycan array binding signal (z-score),[34],-0.363
same,glycan array binding signal (z-score),[35],-0.248
same,glycan array binding signal (z-score),[36],-0.338
same,glycan array binding signal (z-score),[37],-0.223
same,glycan array binding signal (z-score),[38],-0.077

# Part of the list above, bar-delimited.
binder | measurement | setting | value
PX14351B-bth-512-36-512 (Bacteroides thetaiotaomicron) (protein) ASETQQWKTLEDTRSALMGVYGLTRAALADNNTHWICGDLRKGDFTVYKRSDLQAVSDNELNKPYDLLKKVSNWRRFYAVINAASVFMEKAPRTVELDRSYSEQNLKYDIAQVRALRAFAYFYMVRIWGDVPLVTYSYDNGTFPSMPRTDAQTVLSYAKAELLTAIEDLPYQYGTQTNLYYGSYGAQWQGKLFNKLSAYSVLAHICAWQGNYAEAETYSAFIIDHASEINAKYTSIADLTSETGLFYSNASVKGSRILGFNFAHNDNEATQSGHLEQLTLAYPLVQKSYPEIYISKDSLFSIFTNFDDLRFGIIDTIKYSSYYVQNLNEETPVFSKIKIIQDGSAKDNDFGVFGSSIVFTRLEDITLLRAEALCALNRSTEAVSYLNMIRTNRGLREVSFKKDFGNNRESLIAEIFEERRRELMGEGWRWYDLVRRQKLMKDNEAFLRLISSGGIYWPVSEDIITANSQIEQNEFWK | glycan array binding signal (z-score) | [10] | -0.069
same | glycan array binding signal (z-score) | [19] | -0.262
